PubChem BioAssay AID743454, Peter MacCallum Cancer Centre | 2014

Purpose: 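Search for knock-downs that restore vorinostat killing in resistant colon cancer cells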 (primary screen)
System: human HCT116-VR colon cancer cells, selected for vorinostat resistance
Knock-down reagent: siRNA pool against human genes, 40 nM siRNA pool
Time to read-out: vorinostat for 24 h, read-out about 72 h after transfection
Challenge: vorinostat at 2.5 µM final
Measurement: 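Two measures, CellTiter-Fluor viability and luminescent caspase 3/7 activity, each as fold change against same-plate mock wells, mean of duplicates, then screen-wide robust z-score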
Scale: viability robust z-score: higher = more viable cells than screen typical; caspase robust z-score: higher = more caspase 3/7 activity than screen typical
Hit rule: 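Hits are knock-downs in viability class RV1/RV2 or caspase class CA1/CA2, excluding ones that killed cells in the no-drug cell-count arm; hits then retested with single siRNAs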
Here is one part, drawn at random, of about 18,000 reagents tested. In the full data, 450 (2.5%) were called active. 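Single biological run; no consistent viability z cut-off exists, so the class columns, not z-scores, define the calls.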 A number with no mark means an inactive call.

gene,PubChem SID,viability hit class,caspase hit class,viability robust z-score,caspase robust z-score
MNMIP1 (manchette microtubule inner protein 1),SID152151261,no change,no change,0.66,1.52
APOBEC3B (apolipoprotein B mRNA editing enzyme catalytic subunit 3B),SID135623311,no change,no change,1.28,1.39
MAD2L1 (mitotic arrest deficient 2 like 1),SID134309828,no change,no change,-1.5,2.36
RDH8 (retinol dehydrogenase 8),SID152156746,no change,no change,0.7,0.18
QRICH1 (glutamine rich 1),SID134324365,no change,no change,-0.09,-0.19
"GGT2P (gamma-glutamyltransferase 2, pseudogene)",SID152155665,no change,no change,-0.06,-0.72
GCNT1 (glucosaminyl (N-acetyl) transferase 1),SID152154533,no change,no change,-0.17,2.12
ACYP2 (acylphosphatase 2),SID152151583,no change,no change,1.31,0.1
OSBPL11 (oxysterol binding protein like 11),SID134313288,no change,no change,0.48,-0.46
OLFML3 (olfactomedin like 3),SID152154066,no change,no change,-0.68,0.38
"ALPP (alkaline phosphatase, placental)",SID152156234,no change,no change,0.09,1.5
GZF1 (GDNF inducible zinc finger protein 1),SID134312176,no change,no change,-0.55,3.88
RUSF1 (RUS family member 1),SID135620770,no change,no change,0.85,-0.96
"PSMD3 (proteasome 26S subunit, non-ATPase 3)",SID135622111,no change,no change,-4.5,2.55
OR10A3 (olfactory receptor family 10 subfamily A member 3),SID152147664,no change,no change,0.55,0.05
CDX4 (caudal type homeobox 4),SID134314771,no change,no change,1.58,-0.18
TRIM50 (tripartite motif containing 50),SID134312251,no change,no change,0.7,-0.56
DCUN1D5 (defective in cullin neddylation 1 domain containing 5),SID152150484,no change,no change,0.18,-0.92
ARMC7 (armadillo repeat containing 7),SID135623111,no change,no change,0.32,1.35
CFAP107 (cilia and flagella associated protein 107),SID134320826,no change,no change,-0.88,-0.96
NRBP2 (nuclear receptor binding protein 2),SID56479019,no change,no change,1.64,4.19
TMEM87A (transmembrane protein 87A),SID135623522,no change,no change,-0.25,-0.7
SOWAHC (sosondowah ankyrin repeat domain family member C),SID135622702,no change,no change,-1.05,3.46
ATP6AP1 (ATPase H+ transporting accessory protein 1),SID152153791,no change,no change,-1.54,-0.28
STEEP1 (STING1 ER exit protein 1),SID134318098,no change,no change,-0.03,0.52
UBQLN4 (ubiquilin 4),SID134324783,no change,no change,-0.98,4.4
ATP1B1 (ATPase Na+/K+ transporting subunit beta 1),SID134313256,no change,no change,0.43,-1.09
"POLR2L (RNA polymerase II, I and III subunit L)",SID134317368,no change (active),CA2 (caspase activation),-3.59,7.05
"TCAIM (T cell activation inhibitor, mitochondrial)",SID135623456,no change,no change,1.27,-0.78
RPL6 (ribosomal protein L6),SID152151461,no change,no change,-4.93,-0.86
PIGT (phosphatidylinositol glycan anchor biosynthesis class T),SID152149594,no change,no change,-0.76,-0.76
OR2B6 (olfactory receptor family 2 subfamily B member 6),SID134329346,no change,no change,0.14,-0.03
LDLRAP1 (low density lipoprotein receptor adaptor protein 1),SID152150383,no change,no change,0.44,-0.48
TP53INP1 (tumor protein p53 inducible nuclear protein 1),SID152152012,no change,no change,0.55,2.16
OR2T27 (olfactory receptor family 2 subfamily T member 27),SID152154926,no change,no change,-1.05,-1.17
MTMR9 (myotubularin related protein 9),SID135623710,no change,no change,0.05,0.1
SLC41A2,SID152150488,no change,no change,-0.29,1
MAP2K3 (mitogen-activated protein kinase kinase 3),SID152148115,no change,no change,-1.76,0.04
OR52N4 (olfactory receptor family 52 subfamily N member 4),SID152150209,no change,no change,-0.56,1.99

3 entries already listed, ordered by “viability robust z-score”, descending.
gene,PubChem SID,viability hit class,caspase hit class,viability robust z-score,caspase robust z-score
MTMR9 (myotubularin related protein 9),SID135623710,no change,no change,0.05,0.1
SLC41A2,SID152150488,no change,no change,-0.29,1
MAP2K3 (mitogen-activated protein kinase kinase 3),SID152148115,no change,no change,-1.76,0.04
